Experimental data reported in doi:10.1101/2025.11.03.686312.
Results are given in words; binding and its absence hold for the method and conditions named. Binding seen in cells or lysates may run through a third protein. These calls come from enrichment with a bait or labelling near it, and not all partners need be listed.

T1: ClC-5 WT (Cl-/H+ antiporter ClC-5), stably expressed in RPTEC/TERT1 cells depleted of endogenous CLCN5 (human) (UniProt P51795)
T1 sequence: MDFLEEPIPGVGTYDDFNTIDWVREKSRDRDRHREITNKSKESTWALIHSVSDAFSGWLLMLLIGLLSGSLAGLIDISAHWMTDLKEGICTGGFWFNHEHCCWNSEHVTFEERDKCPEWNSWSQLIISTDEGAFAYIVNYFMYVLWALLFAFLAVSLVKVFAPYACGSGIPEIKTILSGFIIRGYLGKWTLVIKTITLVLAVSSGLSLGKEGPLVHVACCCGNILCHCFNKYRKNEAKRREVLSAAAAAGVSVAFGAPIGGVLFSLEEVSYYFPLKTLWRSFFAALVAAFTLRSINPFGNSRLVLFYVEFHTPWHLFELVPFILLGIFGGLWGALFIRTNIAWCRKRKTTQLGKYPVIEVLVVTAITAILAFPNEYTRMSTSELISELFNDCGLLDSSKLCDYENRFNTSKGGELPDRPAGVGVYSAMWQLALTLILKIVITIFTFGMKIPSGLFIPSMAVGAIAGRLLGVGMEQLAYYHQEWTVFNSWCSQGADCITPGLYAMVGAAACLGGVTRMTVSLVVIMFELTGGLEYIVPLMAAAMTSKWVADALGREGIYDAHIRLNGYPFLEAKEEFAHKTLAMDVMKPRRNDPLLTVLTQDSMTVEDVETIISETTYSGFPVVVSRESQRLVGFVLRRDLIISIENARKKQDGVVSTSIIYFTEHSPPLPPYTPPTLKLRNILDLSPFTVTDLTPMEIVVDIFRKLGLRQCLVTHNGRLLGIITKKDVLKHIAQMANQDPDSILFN

T2: ClC-5 V523Δ, stably expressed in RPTEC/TERT1 cells depleted of endogenous CLCN5 (human) (UniProt P51795)
T2 sequence: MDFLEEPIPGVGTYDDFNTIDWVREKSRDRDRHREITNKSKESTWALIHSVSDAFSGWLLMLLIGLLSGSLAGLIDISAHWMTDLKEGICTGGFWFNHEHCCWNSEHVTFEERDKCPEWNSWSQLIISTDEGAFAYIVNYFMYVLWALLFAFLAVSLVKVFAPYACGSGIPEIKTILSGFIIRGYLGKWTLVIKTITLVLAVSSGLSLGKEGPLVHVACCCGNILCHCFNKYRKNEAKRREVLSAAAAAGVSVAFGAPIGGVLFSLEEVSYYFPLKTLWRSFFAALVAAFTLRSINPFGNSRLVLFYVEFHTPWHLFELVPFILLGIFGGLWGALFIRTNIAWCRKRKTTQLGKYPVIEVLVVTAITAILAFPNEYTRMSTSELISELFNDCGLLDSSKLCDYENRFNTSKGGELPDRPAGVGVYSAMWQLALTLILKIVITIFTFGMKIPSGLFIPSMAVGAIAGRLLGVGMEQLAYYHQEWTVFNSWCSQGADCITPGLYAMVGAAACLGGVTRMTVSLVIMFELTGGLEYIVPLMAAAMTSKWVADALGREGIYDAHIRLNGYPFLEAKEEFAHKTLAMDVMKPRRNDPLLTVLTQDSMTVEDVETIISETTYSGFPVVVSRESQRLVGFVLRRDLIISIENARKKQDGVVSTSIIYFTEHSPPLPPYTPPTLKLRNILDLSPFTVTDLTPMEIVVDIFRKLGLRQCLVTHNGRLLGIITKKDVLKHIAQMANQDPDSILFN


Legend:
[1] = target: T1, ClC-5 WT (Cl-/H+ antiporter ClC-5), stably expressed in RPTEC/TERT1 cells depleted of endogenous CLCN5 (human); assay: affinity purification with mass spectrometry
[2] = target: T2, ClC-5 V523Δ, stably expressed in RPTEC/TERT1 cells depleted of endogenous CLCN5 (human); assay: affinity purification with mass spectrometry

Row | binding [1] | binding [2] | Binder
1 | binds |  | FUT8, endogenous in RPTEC/TERT1 cells (enzyme, UniProt Q9BYC5 1-575) MRPWTGSWRWIMLILFAWGTLLFYIGGHLVRDNDHPDHSSRELSKILAKLERLKQQNEDLRRMAESLRIPEGPIDQGPAIGRVRVLEEQLVKAKEQIENYKKQTRNGLGKDHEILRRRIENGAKELWFFLQSELKKLKNLEGNELQRHADEFLLDLGHHERSIMTDLYYLSQTDGAGDWREKEAKDLTELVQRRITYLQNPKDCSKAKKLVCNINKGCGYGCQLHHVVYCFMIAYGTQRTLILESQNWRYATGGWETVFRPVSETCTDRSGISTGHWSGEVKDKNVQVVELPIVDSLHPRPPYLPLAVPEDLADRLVRVHGDPAVWWVSQFVKYLIRPQPWLEKEIEEATKKLGFKHPVIGVHVRRTDKVGTEAAFHPIEEYMVHVEEHFQLLARRMQVDKKRVYLATDDPSLLKEAKTKYPNYEFISDNSISWSAGLHNRYTENSLRGVILDIHFLSQADFLVCTFSSQVCRVAYEIMQTLHPDASANFHSLDDIYYFGGQNAHNQIAIYAHQPRTADEIPMEPGDIIGVAGNHWDGYSKGVNRKLGRTGLYPSYKVREKIETVKYPTYPEAEK
2 |  | binds | DENND3, endogenous in RPTEC/TERT1 cells (protein, UniProt A2RUS2 1-1198) MRSLRKKREKPRPEQWKGLPGPPRAPEPEDVAVPGGVDLLTLPQLCFPGGVCVATEPKEDCVHFLVLTDVCGNRTYGVVAQYYRPLHDEYCFYNGKTHRECPGCFVPFAVCVVSRFPYYNSLKDCLSCLLALLKPCKDFEVDSHIKDFAAKLSLIPSPPPGPLHLVFNMKSLQIVLPARADPESPILDLDLHLPLLCFRPEKVLQILTCILTEQRIVFFSSDWALLTLVTECFMAYLYPLQWQHPFVPILSDQMLDFVMAPTSFLMGCHLDHFEEVSKEADGLVLINIDHGSITYSKSTDDNVDIPDVPLLAAQTFIQRVQSLQLHHELHAAHLLSSTDLKEGRAHRRSWQQKLNCQIQQTTLQLLVSIFRDVKNHLNYEHRVFNSEEFLKTRAPGDHQFYKQVLDTYMFHSFLKARLNRRMDAFAQMDLDTQSEEDRINGMLLSPRRPTVEKRASRKSSHLHVTHRRMVVSMPNLQDIAMPELAPRNSSLRLTDTAGCRGSSAVLNVTPKSPYTFKIPEIHFPLESKCVQAYHAHFVSMLSEAMCFLAPDNSLLLARYLYLRGLVYLMQGQLLNALLDFQNLYKTDIRIFPTDLVKRTVESMSAPEWEGAEQAPELMRLISEILDKPHEASKLDDHVKKFKLPKKHMQLGDFMKRVQESGIVKDASIIHRLFEALTVGQEKQIDPETFKDFYNCWKETEAEAQEVSLPWLVMEHLDKNECVCKLSSSVKTNLGVGKIAMTQKRLFLLTEGRPGYLEISTFRNIEEVRRTTTTFLLRRIPTLKIRVASKKEVFEANLKTECDLWHLMVKEMWAGKKLADDHKDPHYVQQALTNVLLMDAVVGTLQSPGAIYAASKLSYFDKMSNEMPMTLPETTLETLKHKINPSAGEAFPQAVDVLLYTPGHLDPAEKVEDAHPKLWCALSEGKVTVFNASSWTIHQHSFKVGTAKVNCMVMADQNQVWVGSEDSVIYIINVHSMSCNKQLTAHCSSVTDLIVQDGQEAPSNVYSCSMDGMVLVWNVSTLQVTSRFQLPRGGLTSIRLHGGRLWCCTGNSIMVMKMNGSLHQELKIEENFKDTSTSFLAFQLLPEEEQLWAACAGRSEVYIWSLKDLAQPPQRVPLEDCSEINCMIRVKKQVWVGSRGLGQGTPKGKIYVIDAERKTVEKELVAHMDTVRTLCSAEDRYVLSGSGREEGKVAIWKGE
3 | binds |  | GALNT1, endogenous in RPTEC/TERT1 cells (enzyme, UniProt Q10472 1-559) MRKFAYCKVVLATSLIWVLLDMFLLLYFSECNKCDEKKERGLPAGDVLEPVQKPHEGPGEMGKPVVIPKEDQEKMKEMFKINQFNLMASEMIALNRSLPDVRLEGCKTKVYPDNLPTTSVVIVFHNEAWSTLLRTVHSVINRSPRHMIEEIVLVDDASERDFLKRPLESYVKKLKVPVHVIRMEQRSGLIRARLKGAAVSKGQVITFLDAHCECTVGWLEPLLARIKHDRRTVVCPIIDVISDDTFEYMAGSDMTYGGFNWKLNFRWYPVPQREMDRRKGDRTLPVRTPTMAGGLFSIDRDYFQEIGTYDAGMDIWGGENLEISFRIWQCGGTLEIVTCSHVGHVFRKATPYTFPGGTGQIINKNNRRLAEVWMDEFKNFFYIISPGVTKVDYGDISSRVGLRHKLQCKPFSWYLENIYPDSQIPRHYFSLGEIRNVETNQCLDNMARKENEKVGIFNCHGMGGNQVFSYTANKEIRTDDLCLDVSKLNGPVTMLKCHHLKGNQLWEYDPVKLTLQHVNSNQCLDKATEEDSQVPSIRDCNGSRSQQWLLRNVTLPEIF

Continued, binder first:

Row | Binder | binding [1] | binding [2]
4 | DDOST, endogenous in RPTEC/TERT1 cells (protein, UniProt P39656 43-456) SGPRTLVLLDNLNVRETHSLFFRSLKDRGFELTFKTADDPSLSLIKYGEFLYDNLIIFSPSVEDFGGNINVETISAFIDGGGSVLVAASSDIGDPLRELGSECGIEFDEEKTAVIDHHNYDISDLGQHTLIVADTENLLKAPTIVGKSSLNPILFRGVGMVADPDNPLVLDILTGSSTSYSFFPDKPITQYPHAVGKNTLLIAGLQARNNARVIFSGSLDFFSDSFFNSAVQKAAPGSQRYSQTGNYELAVALSRWVFKEEGVLRVGPVSHHRVGETAPPNAYTVTDLVEYSIVIQQLSNGKWVPFDGDDIQLEFVRIDPFVRTFLKKKGGKYSVQFKLPDVYGVFQFKVDYNRLGYTHLYSSTQVSVRPLQHTQYERFIPSAYPYYASAFSMMLGLFIFSIVFLHMKEKEKSD | binds | 
5 | ClC-5 V523Δ, stably expressed in RPTEC/TERT1 cells depleted of endogenous CLCN5 (protein, UniProt P51795-1 1-746) MDFLEEPIPGVGTYDDFNTIDWVREKSRDRDRHREITNKSKESTWALIHSVSDAFSGWLLMLLIGLLSGSLAGLIDISAHWMTDLKEGICTGGFWFNHEHCCWNSEHVTFEERDKCPEWNSWSQLIISTDEGAFAYIVNYFMYVLWALLFAFLAVSLVKVFAPYACGSGIPEIKTILSGFIIRGYLGKWTLVIKTITLVLAVSSGLSLGKEGPLVHVACCCGNILCHCFNKYRKNEAKRREVLSAAAAAGVSVAFGAPIGGVLFSLEEVSYYFPLKTLWRSFFAALVAAFTLRSINPFGNSRLVLFYVEFHTPWHLFELVPFILLGIFGGLWGALFIRTNIAWCRKRKTTQLGKYPVIEVLVVTAITAILAFPNEYTRMSTSELISELFNDCGLLDSSKLCDYENRFNTSKGGELPDRPAGVGVYSAMWQLALTLILKIVITIFTFGMKIPSGLFIPSMAVGAIAGRLLGVGMEQLAYYHQEWTVFNSWCSQGADCITPGLYAMVGAAACLGGVTRMTVSLVIMFELTGGLEYIVPLMAAAMTSKWVADALGREGIYDAHIRLNGYPFLEAKEEFAHKTLAMDVMKPRRNDPLLTVLTQDSMTVEDVETIISETTYSGFPVVVSRESQRLVGFVLRRDLIISIENARKKQDGVVSTSIIYFTEHSPPLPPYTPPTLKLRNILDLSPFTVTDLTPMEIVVDIFRKLGLRQCLVTHNGRLLGIITKKDVLKHIAQMANQDPDSILFN |  | binds
6 | ClC-5 WT (Cl-/H+ antiporter ClC-5), stably expressed in RPTEC/TERT1 cells depleted of endogenous CLCN5 (protein, UniProt P51795-1 1-746) MDFLEEPIPGVGTYDDFNTIDWVREKSRDRDRHREITNKSKESTWALIHSVSDAFSGWLLMLLIGLLSGSLAGLIDISAHWMTDLKEGICTGGFWFNHEHCCWNSEHVTFEERDKCPEWNSWSQLIISTDEGAFAYIVNYFMYVLWALLFAFLAVSLVKVFAPYACGSGIPEIKTILSGFIIRGYLGKWTLVIKTITLVLAVSSGLSLGKEGPLVHVACCCGNILCHCFNKYRKNEAKRREVLSAAAAAGVSVAFGAPIGGVLFSLEEVSYYFPLKTLWRSFFAALVAAFTLRSINPFGNSRLVLFYVEFHTPWHLFELVPFILLGIFGGLWGALFIRTNIAWCRKRKTTQLGKYPVIEVLVVTAITAILAFPNEYTRMSTSELISELFNDCGLLDSSKLCDYENRFNTSKGGELPDRPAGVGVYSAMWQLALTLILKIVITIFTFGMKIPSGLFIPSMAVGAIAGRLLGVGMEQLAYYHQEWTVFNSWCSQGADCITPGLYAMVGAAACLGGVTRMTVSLVVIMFELTGGLEYIVPLMAAAMTSKWVADALGREGIYDAHIRLNGYPFLEAKEEFAHKTLAMDVMKPRRNDPLLTVLTQDSMTVEDVETIISETTYSGFPVVVSRESQRLVGFVLRRDLIISIENARKKQDGVVSTSIIYFTEHSPPLPPYTPPTLKLRNILDLSPFTVTDLTPMEIVVDIFRKLGLRQCLVTHNGRLLGIITKKDVLKHIAQMANQDPDSILFN | binds | 
